The full ranking holds about 33,000 sequences; the median of “E-score (-0.5 to 0.5)” is about -0.016, and the highest 2% start at about 0.3. The list shows a part of the results.
Target: T1, Yer184c (UniProt P39961)
T1 sequence: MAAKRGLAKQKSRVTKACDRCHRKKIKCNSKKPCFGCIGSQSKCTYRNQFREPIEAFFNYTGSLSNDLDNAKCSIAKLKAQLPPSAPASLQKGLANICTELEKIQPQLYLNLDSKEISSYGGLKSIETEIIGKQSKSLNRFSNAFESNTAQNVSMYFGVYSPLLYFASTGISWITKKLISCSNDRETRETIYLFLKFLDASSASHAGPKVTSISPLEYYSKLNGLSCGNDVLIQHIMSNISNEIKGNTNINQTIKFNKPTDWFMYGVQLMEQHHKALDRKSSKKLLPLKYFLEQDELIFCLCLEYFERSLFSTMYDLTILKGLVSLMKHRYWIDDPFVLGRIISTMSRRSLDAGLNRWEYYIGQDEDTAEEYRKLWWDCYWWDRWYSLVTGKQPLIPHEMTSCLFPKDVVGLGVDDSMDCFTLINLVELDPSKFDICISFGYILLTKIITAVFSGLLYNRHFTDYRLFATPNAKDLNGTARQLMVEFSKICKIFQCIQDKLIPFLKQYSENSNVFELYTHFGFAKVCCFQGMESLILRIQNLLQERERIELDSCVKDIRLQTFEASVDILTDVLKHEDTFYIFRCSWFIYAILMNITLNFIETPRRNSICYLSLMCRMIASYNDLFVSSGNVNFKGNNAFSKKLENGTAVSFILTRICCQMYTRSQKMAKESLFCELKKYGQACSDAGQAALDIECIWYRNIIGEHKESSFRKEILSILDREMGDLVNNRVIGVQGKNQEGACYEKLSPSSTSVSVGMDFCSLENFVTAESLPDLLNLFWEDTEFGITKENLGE
Test: PBM E-score (8-mer binding enrichment) (E-score (-0.5 to 0.5)); higher = stronger / more preferred TF binding
Conditions: protein concentration: 100 nM; construct: GST-full length
Method in brief: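 Universal all-10-mer Agilent arrays, double-stranded by primer extension on fresh or once-stripped slides, were probed with about 100-200 nM GST-tagged yeast transcription factors made by PURExpress. Fluorescent anti-GST detected bound protein, and masliner normalised the scans. E-scores from the Universal PBM Analysis Suite were given to each ungapped eight-base word pooled with its reverse complement.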

| Sequence | PBM E-score |
| --- | --- |
| CGTCGAGA | 0.0489 |
| AATAACTA | 0.00633 |
| CGGAGTAA | 0.313 |
| GACGTGGC | -0.302 |
| AAACACGC | 0.014 |
| CAAGTAGG | -0.157 |
| GACCTCTA | -0.0248 |
| GACGATCA | -0.144 |
| ACGTCGCG | 0.0799 |
| GTCATAAA | 0.137 |
| GCTTTGGA | 0.13 |
| AACATCGC | -0.158 |
| AATTGGAT | 0.0921 |
| CAACTCCA | -0.139 |
| ATGCAAGA | 0.0225 |
| ACCAGGCG | -0.0635 |
| GAAGTCTA | -0.243 |
| AGGATAAT | 0.0292 |
| AGCATCGA | 0.0924 |
| AACATCTT | 0.0303 |
| TGTGCGAA | -0.163 |
| CCATTAAG | -0.0869 |
| AAAACATT | 0.0702 |
| GCAATGAC | -0.0926 |
| CGGTAGTC | 0.084 |

| Sequence | PBM E-score |
| --- | --- |
| TCCCACAA | -0.0807 |
| CAGTGCCC | -0.153 |
| AATACTCC | -0.00405 |
| CGTCGGGC | -0.0962 |
| GAACTAAC | 0.158 |
| CTTATCCC | -0.0328 |
| CCTTTCCA | -0.0114 |
| GCCTCTAA | -0.221 |
| CGATAACC | 0.0924 |
| GGTCAGAC | -0.221 |
| ATCCATCA | -0.186 |
| GCACGGGA | 0.158 |
| GACCTTTA | 0.0364 |
| CTGCCCGC | -0.0137 |
| CGGTTATA | 0.0659 |
| GAAGCGTA | -0.0311 |
| ACTGAGGC | 0.179 |
| AACTGGAT | 0.153 |
| AATCTATC | -0.0774 |
| ATAAAGTG | 0.174 |
| CCTAGGAA | 0.0223 |
| GATGTCTA | -0.00433 |
| CTGAAGCC | -0.0315 |
| AATGGAAT | 0.124 |
| CCTTTACG | 0.0566 |

Single entries from the results shown.
AAAACATT – PBM E-score: 0.0702
CTGCCCGC – PBM E-score: -0.0137
CGATAACC – PBM E-score: 0.0924
AAACACGC – PBM E-score: 0.014
AGCATCGA – PBM E-score: 0.0924

Continued.

| Sequence | PBM E-score |
| --- | --- |
| CTGACTCA | -0.215 |
| CAGTACGC | -0.132 |
| ACTAGATA | 0.0984 |
| CAATGTGG | -0.171 |
| ATAGTTTC | -0.00249 |
| GGCGAGAC | -0.215 |
| ATTTTGTC | 0.131 |
| CAGTCGAA | -0.184 |
| AAGTTATT | 0.178 |
| GGCCATCA | -0.0635 |
| ACCTTCAT | -0.00129 |
| ACGCTAAA | 0.0442 |
| GATCTGAA | 0.0519 |
| CGGTGTCC | 0.153 |
| ACTTTTTA | 0.0977 |
| AAGATAAC | 0.068 |
| TGCCCTAA | -0.217 |
| ACGTAGCT | -0.118 |
| GCAGCGCC | -0.00836 |
| ATCGTAAA | -0.00064 |
| GGCGTGTA | -0.179 |
| CTGGGTGA | 0.086 |
| GCAACGCA | -0.069 |
| TCACCCGA | 0.0554 |
| AGAGCAAT | -0.105 |

| Sequence | PBM E-score |
| --- | --- |
| AAGAGCGG | -0.0389 |
| CACCTTTC | -0.137 |
| GACATTGC | -0.175 |
| ATATTTAA | 0.306 |
| ATGGTCCC | -0.195 |
| CGGTACTC | -0.0527 |
| GCATAAAC | 0.0879 |
| CACTAAGA | 0.0113 |
| CGGGCCAA | -0.113 |
| ATCCTGTC | 0.0638 |
| AACATAGT | 0.0272 |
| ATAGCTCA | -0.155 |
| AAAAAGAC | 0.0812 |
| AGCTGATA | -0.0203 |
| TCAGACGA | -0.0957 |
| CTAAGTAC | 0.0725 |
| AAGAGGAC | -0.0988 |
| CACATCAC | -0.0326 |
| GCGCAAGC | -0.174 |
| ACGCTTAA | 0.00513 |
| ACACCAGC | -0.289 |
| TAGACTCA | 0.0545 |
| ACTCGGTC | 0.19 |
| TACCATCA | -0.165 |
| CGCTTTGA | -0.0367 |

| Sequence | PBM E-score |
| --- | --- |
| AGGGGACC | -0.276 |
| ATAATAAA | 0.276 |
| AACTCGCG | 0.125 |
| GCCTACTA | -0.116 |
| ATTAGTTG | 0.137 |
| CTAATACC | 0.0914 |
| ACTAGTCC | 0.0395 |
| GGGTAAGA | -0.0467 |
| CGGTAAAC | 0.216 |
| AATGGCGC | -0.165 |
| AAGGTGGA | -0.00775 |
| AGACATCG | -0.123 |
| ATCCTGAA | 0.102 |
| ATGCCAAA | -0.0656 |
| CGATTACA | 0.0248 |
| CACAGCAA | 0.175 |
| ACTGCTAT | -0.108 |
| CGACGTAA | 0.15 |
| GTCCCCGA | -0.142 |
| CGACTCAA | 0.0276 |
| ACCGGTAT | 0.081 |
| CGGACAGC | 0.255 |
| CCGAGAGA | 0.212 |
| ACGCGCGA | -0.00575 |
| AACTCATA | 0.146 |

| Sequence | PBM E-score |
| --- | --- |
| AGTTATAT | 0.0788 |
| GTACGAAA | 0.239 |
| GAACTATA | 0.204 |
| ACTCTAGG | -0.198 |
| ACTCACCT | -0.297 |
| AAAGAGCA | 0.0786 |
| GAGTTTCC | 0.178 |
| GTTGCTCA | -0.0553 |
| CGGGACAG | 0.167 |
| AGCGCCAA | -0.231 |
| GTTACCAA | 0.00353 |
| ACAGAGTC | -0.214 |
| AAAAACCT | 0.111 |
| CTGCCCGA | 0.00693 |
| AGTATTAG | 0.19 |
| AAATCGGC | 0.283 |
| AGCAACCA | 0.0575 |
| CGGTGACC | -0.0412 |
| GAACATTA | 0.124 |
| ATTGCCTG | -0.0599 |
| AGGGCCTG | -0.329 |
| CCATCACA | -0.124 |
| AACTGATG | -0.068 |
| CACGGATG | 0.108 |
| AAAGGGTA | -0.0896 |

| Sequence | PBM E-score |
| --- | --- |
| AAGCGCCC | -0.0109 |
| CGAGTCTA | -0.103 |
| TCAAATCA | -0.0758 |
| CAAGGGGA | -0.0979 |
| GTGTTTCA | -0.098 |
| AAAGGAAA | 0.203 |
| ATGTAACA | 0.152 |
| CTCGGCGA | 0.399 |
| GCTATAAC | -0.00042 |
| AGGAAGGC | -0.0284 |
| CCCTACGC | -0.284 |
| CCCCACCC | -0.0349 |
| CTTCAGAA | 0.131 |
| GCCTGAAC | -0.0829 |
| GGGCCACC | -0.0621 |
| CCATATTC | -0.0171 |
| ATCAGCCC | -0.386 |
| CAATGTCC | -0.087 |
| ACCTTCGG | 0.197 |
| GTGCCAGA | -0.299 |
| CGGTATAC | 0.0988 |
| GGTATGCA | -0.191 |
